PubChem BioAssay AID686938, Drosophila RNAi Screening Center – 2013
The deposit covers about 23,000 reagents; this is an unselected part of those that have a named target and a result. In the full data, 75 (0.33%) were called active. 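Raw plate signals without normalisation; calls rest on plate z-scores that were not deposited; ratio present for only 364 wells.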 Entries without a mark were called inactive. The numbers tell different reagents against one gene apart. Names joined by + are all predicted targets of the reagent. Reagent sequences are not shown. The record does not give: the dose of the treatment.

Aim: 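Looking for CRAC channel components and the factors controlling them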 (primary screen)
Cell system: Drosophila S2R+ cells
Reagents: long dsRNA against Drosophila genes, about 0.25 µg dsRNA per well, roughly 10,000 cells
Timing: 5 days of knock-down before the calcium assay
Challenge: thapsigargin (SERCA pump blocker) to empty calcium stores; entry signal taken 4 min after adding it
Detection: 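Per-well fluo-4 fluorescence in two replicates, unnormalised, measured in resting cells and 4 min after store depletion by the SERCA blocker thapsigargin; ratio of the two present in few wells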
Scale: calcium entry signal: higher = stronger calcium signal after store depletion; entry to resting ratio: higher = more calcium entry relative to resting level; resting calcium signal: higher = higher resting calcium signal
Call rule: 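Called when the plate z-score of the entry-to-rest ratio, mean of duplicates, falls below −3; wells with low overall dye signal (Fmax z below −2) or more than five off-targets excluded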
Meaning of the calls: active = strongly reduced calcium entry; inactive = no strong reduction

| target | dsRNA no. | calcium entry signal, replicate 1 (fluorescence units) | calcium entry signal, replicate 2 (fluorescence units) | entry to resting ratio | resting calcium signal, replicate 1 (fluorescence units) | resting calcium signal, replicate 2 (fluorescence units) |
| --- | --- | --- | --- | --- | --- | --- |
| CG32432 | 1 | 2.17e7 | 2.91e7 | – | 1.48e7 | 1.67e7 |
| CG32432 | 2 | 3.23e7 | 5.40e7 | – | 1.82e7 | 2.66e7 |
| CG32432 | 3 | 3.01e7 | 4.66e7 | – | 1.44e7 | 2.03e7 |
| CG33796 | 1 | 3.23e7 | 2.33e7 | – | 1.68e7 | 1.24e7 |
| ND-B17.2 | 1 | 4.52e7 | 4.65e7 | – | 2.06e7 | 2.12e7 |
| alien | 1 | 3.01e7 | – | – | 1.62e7 | – |
| CG10646 | 1 | 4.10e7 | 2.98e7 | – | 2.11e7 | 1.60e7 |
| CG4783 | 1 | 4.05e7 | 2.58e7 | – | 1.95e7 | 1.39e7 |
| CG13021 | 1 | 3.86e7 | 2.76e7 | 2.2 | 1.77e7 | 1.38e7 |
| Syx6 | 1 | 2.58e7 | 2.72e7 | – | 1.18e7 | 1.28e7 |
| DIP1 | 1 | 3.80e7 | 3.62e7 | – | 2.06e7 | 1.81e7 |
| CG10853 | 1 | 3.83e7 | 5.47e7 | – | 1.88e7 | 2.32e7 |
| Sfp53D | 1 | 2.57e7 | 5.84e7 | – | 1.26e7 | 2.57e7 |
| Acyp | 1 | 4.58e7 | 2.63e7 | – | 1.91e7 | 1.27e7 |
| sr | 1 | 3.31e7 | 3.11e7 | – | 1.63e7 | 1.53e7 |
| sr | 2 | 3.73e7 | 3.65e7 | – | 3.93e7 | 1.71e7 |
| CG6766 | 1 | 3.39e7 | 6.73e7 | – | 1.52e7 | 2.89e7 |
| tamo | 1 | 4.19e7 | – | – | 2.27e7 | – |
| Hph | 1 | 2.40e7 | 3.96e7 | – | 1.07e7 | 1.75e7 |
| Hph | 2 | 3.57e7 | 1.96e7 | – | 1.68e7 | 9.68e6 |
| Hph | 3 | 2.86e7 | 6.73e7 | – | 1.46e7 | 2.84e7 |
| Rhp | 1 | 3.65e7 | 3.18e7 | – | 1.99e7 | 1.41e7 |
| Ir7f | 1 | 2.82e7 | 4.00e7 | – | 1.48e7 | 1.73e7 |
| Ir100a | 1 | 4.79e7 | 3.35e7 | 2.1 | 2.28e7 | 1.70e7 |
| Rpt3R | 1 | 2.67e7 | 3.33e7 | – | 1.67e7 | 1.87e7 |
| Skp2 | 1 | 2.78e7 | 3.97e7 | – | 1.40e7 | 2.76e7 |
| CG11726 | 1 | 2.37e7 | 4.59e7 | – | 1.27e7 | 1.68e7 |
| Hsp70Aa + Hsp70Ab | 1 | 3.97e7 | 3.53e7 | – | 2.20e7 | 1.60e7 |
| CG18563 | 1 | 3.83e7 | 2.64e7 | – | 1.56e7 | 1.23e7 |
| lft | 1 | 3.28e7 | 4.58e7 | – | 1.58e7 | 1.85e7 |
| CG1523 | 1 | 4.55e7 | 4.61e7 | – | 1.84e7 | 2.01e7 |
| CG5290 | 1 | 3.12e7 | 3.56e7 | – | 1.41e7 | 2.35e7 |
| side-VI | 1 | 2.80e7 | 4.46e7 | – | 1.44e7 | 2.08e7 |
| side-VI | 2 | 3.32e7 | 4.67e7 | – | 1.71e7 | 2.24e7 |
| side-VI | 3 | 3.77e7 | 3.76e7 | – | 1.91e7 | 1.82e7 |
| side-VI | 4 | 3.98e7 | 4.30e7 | – | 1.96e7 | 2.19e7 |
| side-VI | 5 | 5.88e7 | 3.69e7 | – | 2.93e7 | 1.47e7 |
| Mal-B2 | 1 | 4.71e7 | 3.05e7 | – | 2.39e7 | 1.67e7 |
| CG13227 | 1 | 1.82e7 | 2.02e7 | – | 9.46e6 | 1.00e7 |
| Fdh | 1 | 4.39e7 | 4.91e7 | – | 1.90e7 | 2.06e7 |
| CG15282 | 1 | 3.61e7 | 3.66e7 | – | 2.12e7 | 1.80e7 |
| CG15282 | 2 | 6.61e7 | 3.81e7 | – | 3.19e7 | 1.77e7 |
| CG2006 | 1 | 4.22e7 | 3.35e7 | – | 1.93e7 | 1.58e7 |
| CG32069 + Blos2 | 1 | 4.25e7 | 3.27e7 | – | 2.84e7 | 1.47e7 |
| CG31817 | 1 | 3.85e7 | 3.24e7 | – | 2.15e7 | 1.66e7 |
| CG31817 | 2 | 3.28e7 | 3.15e7 | – | 1.88e7 | 1.57e7 |
| CG31817 | 3 | 3.85e7 | 3.50e7 | – | 2.13e7 | 1.71e7 |
| Mf | 1 | 3.62e7 | 6.06e7 | – | 1.80e7 | 6.25e7 |
| mfr | 1 | 3.02e7 | 5.08e7 | – | 1.49e7 | 2.22e7 |
| CG14841 | 1 | 2.29e7 | 4.86e7 | – | 1.22e7 | 7.53e7 |
| ghi | 1 | 4.13e7 | 3.39e7 | – | 1.96e7 | 1.81e7 |
| CG12177 | 1 | 3.21e7 | 3.80e7 | – | 1.65e7 | 1.80e7 |
| CG12177 | 2 | 3.29e7 | 3.22e7 | – | 1.84e7 | 1.55e7 |
| cDIP | 1 | 5.52e7 | 4.16e7 | – | 2.66e7 | 1.83e7 |
| CG31344 | 1 | 2.92e7 | 4.62e7 | – | 1.60e7 | 7.24e7 |
| Arp53D | 1 | 3.78e7 | 4.89e7 | – | 1.92e7 | 2.28e7 |
| CG15650 | 1 | 4.22e7 | 5.40e7 | – | 2.12e7 | 2.40e7 |
| Shc | 1 | 2.13e7 | 2.71e7 | – | 1.17e7 | 1.18e7 |

4 entries from above in another layout.
target | dsRNA no. | calcium entry signal, replicate 1 (fluorescence units) | calcium entry signal, replicate 2 (fluorescence units) | entry to resting ratio | resting calcium signal, replicate 1 (fluorescence units) | resting calcium signal, replicate 2 (fluorescence units)
sr | 2 | 3.73e7 | 3.65e7 | – | 3.93e7 | 1.71e7
CG6766 | 1 | 3.39e7 | 6.73e7 | – | 1.52e7 | 2.89e7
tamo | 1 | 4.19e7 | – | – | 2.27e7 | –
Hph | 1 | 2.40e7 | 3.96e7 | – | 1.07e7 | 1.75e7
